Assay results published in US20120149591A1.
No constants are given. Whether binding was seen depends on the method and setting. Some results given as binding are weak or reduced against the parent protein; the word gives no strength.

Sequences of proteins named here, by UniProt entry; tags and fusion partners are left off. Residues count along the entry.
UniProt P01012, residues 2-386: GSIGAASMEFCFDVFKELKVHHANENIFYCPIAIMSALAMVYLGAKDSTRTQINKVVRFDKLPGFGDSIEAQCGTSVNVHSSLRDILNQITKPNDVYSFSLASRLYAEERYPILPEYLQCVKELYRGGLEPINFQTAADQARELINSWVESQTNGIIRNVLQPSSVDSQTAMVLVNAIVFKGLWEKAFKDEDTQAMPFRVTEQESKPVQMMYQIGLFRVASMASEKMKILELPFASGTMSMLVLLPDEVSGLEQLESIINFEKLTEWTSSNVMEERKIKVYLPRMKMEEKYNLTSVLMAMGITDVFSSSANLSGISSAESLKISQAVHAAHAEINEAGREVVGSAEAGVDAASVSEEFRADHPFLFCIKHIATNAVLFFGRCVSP

Molecular target: ovalbumin (UniProt P01012)
Assay: phage ELISA on coated ovalbumin, anti-M13-HRP detection

| Binder | binding |
| --- | --- |
| VSFMLLGPHRHR (peptide, not shown: large carriers) [C4] | binds |
| ANLWRIVLHGWW (peptide, not shown: large carriers) [C1] | binds |

Second part, the binder after the results:

| binding | Binder |
| --- | --- |
| binds | LVLHWLSLGSR (peptide, not shown: large carriers) [C6] |
| binds | SNQVVLILHLRP (peptide, not shown: large carriers) [C8] |
